Results published in publication PMC3904869.
These are yes or no findings as the source states them, for the method shown. Binding seen in cells or lysates may run through a third protein. Some binding calls cover weakened binding; strength is not graded here.

By UniProt entry, the sequences of proteins in these tests, tags left out.
UniProt Q92466: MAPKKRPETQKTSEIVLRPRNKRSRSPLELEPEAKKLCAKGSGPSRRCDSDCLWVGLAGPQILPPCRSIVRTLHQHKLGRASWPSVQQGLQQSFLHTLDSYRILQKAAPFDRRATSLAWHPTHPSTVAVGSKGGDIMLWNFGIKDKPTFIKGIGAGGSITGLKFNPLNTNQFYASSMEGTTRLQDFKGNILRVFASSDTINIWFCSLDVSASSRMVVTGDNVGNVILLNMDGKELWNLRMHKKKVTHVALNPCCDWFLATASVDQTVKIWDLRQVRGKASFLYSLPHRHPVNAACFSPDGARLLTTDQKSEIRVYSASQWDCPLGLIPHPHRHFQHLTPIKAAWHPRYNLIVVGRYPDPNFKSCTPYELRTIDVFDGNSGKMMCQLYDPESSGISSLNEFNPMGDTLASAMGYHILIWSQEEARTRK
UniProt Q92905: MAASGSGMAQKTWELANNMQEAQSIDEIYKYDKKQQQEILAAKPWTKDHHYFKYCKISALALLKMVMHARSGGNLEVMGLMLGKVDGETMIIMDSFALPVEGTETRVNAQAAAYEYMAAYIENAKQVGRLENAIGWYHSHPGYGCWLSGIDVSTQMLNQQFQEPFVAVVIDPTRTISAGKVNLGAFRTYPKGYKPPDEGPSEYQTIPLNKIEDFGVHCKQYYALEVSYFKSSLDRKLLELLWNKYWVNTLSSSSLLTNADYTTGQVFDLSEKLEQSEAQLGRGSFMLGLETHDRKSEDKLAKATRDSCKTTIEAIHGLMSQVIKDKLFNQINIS
UniProt Q13619: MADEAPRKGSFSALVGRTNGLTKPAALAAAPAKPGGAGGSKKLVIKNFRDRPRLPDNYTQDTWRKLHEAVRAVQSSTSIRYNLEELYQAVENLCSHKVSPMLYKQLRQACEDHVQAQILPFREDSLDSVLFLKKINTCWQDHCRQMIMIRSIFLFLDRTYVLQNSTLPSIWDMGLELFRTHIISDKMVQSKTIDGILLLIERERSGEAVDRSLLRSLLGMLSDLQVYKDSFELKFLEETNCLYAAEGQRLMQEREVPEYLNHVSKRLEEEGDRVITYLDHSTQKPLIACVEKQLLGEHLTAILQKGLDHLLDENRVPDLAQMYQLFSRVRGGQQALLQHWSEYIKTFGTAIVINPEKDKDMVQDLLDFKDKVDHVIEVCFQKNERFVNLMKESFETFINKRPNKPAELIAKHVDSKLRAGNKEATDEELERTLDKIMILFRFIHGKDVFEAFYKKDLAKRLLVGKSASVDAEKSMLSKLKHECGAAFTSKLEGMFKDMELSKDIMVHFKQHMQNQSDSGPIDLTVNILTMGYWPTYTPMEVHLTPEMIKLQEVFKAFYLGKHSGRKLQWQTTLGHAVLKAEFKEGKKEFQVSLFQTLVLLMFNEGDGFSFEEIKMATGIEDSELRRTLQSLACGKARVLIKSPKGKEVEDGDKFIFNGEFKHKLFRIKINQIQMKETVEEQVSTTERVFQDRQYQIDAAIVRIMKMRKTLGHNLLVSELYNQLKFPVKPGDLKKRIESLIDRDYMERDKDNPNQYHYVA
UniProt Q16531: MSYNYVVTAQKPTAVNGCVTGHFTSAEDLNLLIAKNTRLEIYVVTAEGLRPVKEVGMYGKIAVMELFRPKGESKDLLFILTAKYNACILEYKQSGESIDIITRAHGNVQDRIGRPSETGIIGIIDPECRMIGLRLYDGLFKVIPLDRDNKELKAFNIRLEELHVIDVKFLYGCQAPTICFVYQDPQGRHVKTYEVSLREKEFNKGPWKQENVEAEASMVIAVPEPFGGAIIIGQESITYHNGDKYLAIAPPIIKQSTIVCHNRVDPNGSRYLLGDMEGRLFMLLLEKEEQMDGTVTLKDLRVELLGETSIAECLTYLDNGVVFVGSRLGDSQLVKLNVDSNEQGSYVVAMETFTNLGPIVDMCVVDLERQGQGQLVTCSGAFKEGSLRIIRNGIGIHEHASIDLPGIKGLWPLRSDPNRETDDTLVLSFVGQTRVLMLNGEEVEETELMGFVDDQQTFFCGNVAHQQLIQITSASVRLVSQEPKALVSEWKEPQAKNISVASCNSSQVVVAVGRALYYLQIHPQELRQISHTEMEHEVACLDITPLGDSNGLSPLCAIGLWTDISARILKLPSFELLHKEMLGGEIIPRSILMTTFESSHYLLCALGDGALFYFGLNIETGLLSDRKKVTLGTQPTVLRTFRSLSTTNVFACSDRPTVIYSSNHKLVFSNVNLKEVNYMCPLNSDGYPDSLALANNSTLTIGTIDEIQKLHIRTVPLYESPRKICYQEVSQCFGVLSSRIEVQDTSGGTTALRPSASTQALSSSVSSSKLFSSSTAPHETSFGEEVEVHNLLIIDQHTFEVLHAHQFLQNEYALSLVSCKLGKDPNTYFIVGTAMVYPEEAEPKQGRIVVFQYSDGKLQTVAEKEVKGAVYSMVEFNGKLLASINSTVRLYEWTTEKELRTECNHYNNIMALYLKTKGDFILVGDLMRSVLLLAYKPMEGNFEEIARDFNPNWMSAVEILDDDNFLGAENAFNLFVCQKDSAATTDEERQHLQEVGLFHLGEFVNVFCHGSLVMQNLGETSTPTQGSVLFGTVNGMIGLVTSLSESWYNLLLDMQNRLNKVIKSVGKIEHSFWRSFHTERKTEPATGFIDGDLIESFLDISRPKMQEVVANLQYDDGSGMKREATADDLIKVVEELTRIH

Target: DDB2-FLAG-HA (DNA-Damage Binding protein 2 fused to a FLAG-HA tag) (UniProt Q92466)
Test: co-IP; FLAG-affinity purification of DDB2-FLAG-HA from cleared HeLa S3 lysate (40 mM Tris-HCl pH 8, 200 mM NaCl, 10% glycerol, 2 mM EDTA, 0.4% NP40) on M2 anti-FLAG agarose beads, 4 h at 4°C; eluted with excess FLAG peptide; partners detected by immuno-blotting

Row | Substance | binding
1 | CSN5 (from UniProt Q92905 1-334) | binds
2 | Cullin4A (from UniProt Q13619 1-759) (other; other documents disagree on this pair) | binds
3 | DDB1 (from UniProt Q16531 1-1140) | binds
